# Screen size: about 73,000 compounds; about 1,800 (2.5%) were called active. Inconclusive results (about 13%) are left out. The call rests on the fitted dose curve; in most records, active means well fitted activation curve with a large enough effect; inconclusive means small, poorly fitted or top-dose-only effect; inactive means no such curve, though single readings can be large or run the other way. The list shows a part of the results.
# Experiment: qHTS Assay for Agonists of the Thyroid Stimulating Hormone Receptor: Activators of Intracellular cAMP Concentrations in Parental HEK 293
row,Compound,outcome
1,[Na+].[O-][Br+2]([O-])[O-],inactive

# Reference: the GenesisPotency data set
